The source of these data is article PMC10837206, “R-Spondin 2 governs Xenopus left-right body axis formation by establishing an FGF signaling gradient” (Nature Communications, 2024).

By UniProt entry, the sequences of proteins in these tests, tags left out. Where a name states a change or a piece, a line headed by the entry shows the natural chain unless it says otherwise. Residues count along the entry.
UniProt P36894: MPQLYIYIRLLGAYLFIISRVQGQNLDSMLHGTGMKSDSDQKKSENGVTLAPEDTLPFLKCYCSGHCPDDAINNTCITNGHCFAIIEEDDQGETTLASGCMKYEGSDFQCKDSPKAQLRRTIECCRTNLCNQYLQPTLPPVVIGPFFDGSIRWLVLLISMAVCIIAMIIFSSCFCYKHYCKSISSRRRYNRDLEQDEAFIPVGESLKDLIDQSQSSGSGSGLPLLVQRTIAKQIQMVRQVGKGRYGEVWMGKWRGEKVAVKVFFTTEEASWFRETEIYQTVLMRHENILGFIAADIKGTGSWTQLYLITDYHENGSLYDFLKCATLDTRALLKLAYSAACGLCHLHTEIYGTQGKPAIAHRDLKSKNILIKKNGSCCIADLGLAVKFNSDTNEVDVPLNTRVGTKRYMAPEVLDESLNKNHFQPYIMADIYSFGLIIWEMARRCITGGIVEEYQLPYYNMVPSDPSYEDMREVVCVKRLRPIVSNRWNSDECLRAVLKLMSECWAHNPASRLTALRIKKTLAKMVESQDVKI
BMPR1A-HA on transfected HEK293T cells: residues 24-532 of P36894
UniProt P11362, residues 22-376: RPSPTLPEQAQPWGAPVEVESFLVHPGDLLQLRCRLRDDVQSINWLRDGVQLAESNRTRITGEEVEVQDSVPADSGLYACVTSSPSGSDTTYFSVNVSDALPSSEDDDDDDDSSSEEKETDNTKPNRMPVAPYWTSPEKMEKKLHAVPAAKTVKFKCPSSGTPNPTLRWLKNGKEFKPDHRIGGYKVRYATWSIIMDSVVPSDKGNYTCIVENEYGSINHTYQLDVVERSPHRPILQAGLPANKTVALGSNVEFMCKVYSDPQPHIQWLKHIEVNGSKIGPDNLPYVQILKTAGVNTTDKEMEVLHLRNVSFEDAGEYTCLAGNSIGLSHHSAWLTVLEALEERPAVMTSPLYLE
UniProt Q2I0M5, residues 20-234: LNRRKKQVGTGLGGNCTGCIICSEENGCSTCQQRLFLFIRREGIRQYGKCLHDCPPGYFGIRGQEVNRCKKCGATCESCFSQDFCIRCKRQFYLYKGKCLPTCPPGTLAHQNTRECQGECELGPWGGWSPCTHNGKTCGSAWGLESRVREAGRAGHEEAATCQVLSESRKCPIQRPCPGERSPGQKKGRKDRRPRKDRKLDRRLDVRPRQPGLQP
UniProt Q2MKA7, residues 21-263: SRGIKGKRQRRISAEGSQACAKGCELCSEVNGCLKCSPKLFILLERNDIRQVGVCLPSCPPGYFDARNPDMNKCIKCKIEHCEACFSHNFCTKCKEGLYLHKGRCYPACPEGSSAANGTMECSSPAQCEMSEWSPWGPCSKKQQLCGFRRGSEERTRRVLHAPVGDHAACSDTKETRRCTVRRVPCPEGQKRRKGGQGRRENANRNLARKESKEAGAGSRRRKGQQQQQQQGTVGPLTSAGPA

Read-outs that look alike come from different tables or passages of the source. These are yes or no findings as the source states them, for the method shown. Some binding calls cover weakened binding; strength is not graded here. For some assays here: Sequences can lack the tags named with a protein.

The target of experiment [1] is T1, Xenopus tropicalis Lgr4-V5 on transfected HEK293T cells (Xenopus tropicalis) (UniProt B0BLW3).
T1 sequence: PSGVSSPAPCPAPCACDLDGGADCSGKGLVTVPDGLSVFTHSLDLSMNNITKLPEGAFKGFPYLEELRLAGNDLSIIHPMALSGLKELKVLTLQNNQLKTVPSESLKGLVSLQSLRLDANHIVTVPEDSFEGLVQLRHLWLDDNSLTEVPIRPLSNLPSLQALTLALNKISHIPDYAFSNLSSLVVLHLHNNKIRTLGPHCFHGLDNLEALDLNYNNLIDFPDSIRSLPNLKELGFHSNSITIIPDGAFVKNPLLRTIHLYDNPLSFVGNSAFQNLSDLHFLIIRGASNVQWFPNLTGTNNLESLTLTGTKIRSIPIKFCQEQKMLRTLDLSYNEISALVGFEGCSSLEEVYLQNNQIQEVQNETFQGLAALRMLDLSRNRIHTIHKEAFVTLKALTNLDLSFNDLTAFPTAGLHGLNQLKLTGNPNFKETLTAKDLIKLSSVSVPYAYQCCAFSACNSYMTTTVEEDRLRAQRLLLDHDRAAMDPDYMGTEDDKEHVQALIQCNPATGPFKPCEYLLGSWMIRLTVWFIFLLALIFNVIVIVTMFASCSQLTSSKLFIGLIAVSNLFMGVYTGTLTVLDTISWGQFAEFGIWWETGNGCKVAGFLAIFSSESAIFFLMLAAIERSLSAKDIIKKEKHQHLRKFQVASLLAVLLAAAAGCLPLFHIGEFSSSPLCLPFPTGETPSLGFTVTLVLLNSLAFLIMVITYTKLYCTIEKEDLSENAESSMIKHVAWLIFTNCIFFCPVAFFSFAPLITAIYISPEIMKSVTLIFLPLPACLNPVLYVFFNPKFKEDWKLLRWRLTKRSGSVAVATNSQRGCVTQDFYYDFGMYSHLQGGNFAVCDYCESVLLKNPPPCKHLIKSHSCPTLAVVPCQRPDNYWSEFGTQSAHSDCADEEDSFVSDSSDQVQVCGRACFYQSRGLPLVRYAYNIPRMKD
Put plainly: cell surface binding assay (AP fusion protein on transfected cells); HEK293T cells transfected with the receptor; 2-2.5 U ml^-1 AP-fused conditioned media for 3 h on ice; cross-linked with DSP; developed with BM-Purple.

For experiment [2], the target named is human FGFR4-HA (Fibroblast Growth Factor receptor 4) on transfected HEK293T cells (human) (UniProt P22455). The experiment is described as above.
Experiment [3] deals with human RSPO2-AP (alkaline-phosphatase-tagged R-Spondin 2 fusion protein) (human) (UniProt Q6UXX9). Put plainly: cell surface competitive binding assay (AP fusion protein on transfected cells); as a4; the soluble Fc Chimera (5 nM) against RSPO2-AP in conditioned medium; only the binder purified.
The target of experiment [4] is T2, Xenopus laevis Fgfr4a-V5 on transfected HEK293T cells (Xenopus laevis) (UniProt Q91743).
T2 sequence: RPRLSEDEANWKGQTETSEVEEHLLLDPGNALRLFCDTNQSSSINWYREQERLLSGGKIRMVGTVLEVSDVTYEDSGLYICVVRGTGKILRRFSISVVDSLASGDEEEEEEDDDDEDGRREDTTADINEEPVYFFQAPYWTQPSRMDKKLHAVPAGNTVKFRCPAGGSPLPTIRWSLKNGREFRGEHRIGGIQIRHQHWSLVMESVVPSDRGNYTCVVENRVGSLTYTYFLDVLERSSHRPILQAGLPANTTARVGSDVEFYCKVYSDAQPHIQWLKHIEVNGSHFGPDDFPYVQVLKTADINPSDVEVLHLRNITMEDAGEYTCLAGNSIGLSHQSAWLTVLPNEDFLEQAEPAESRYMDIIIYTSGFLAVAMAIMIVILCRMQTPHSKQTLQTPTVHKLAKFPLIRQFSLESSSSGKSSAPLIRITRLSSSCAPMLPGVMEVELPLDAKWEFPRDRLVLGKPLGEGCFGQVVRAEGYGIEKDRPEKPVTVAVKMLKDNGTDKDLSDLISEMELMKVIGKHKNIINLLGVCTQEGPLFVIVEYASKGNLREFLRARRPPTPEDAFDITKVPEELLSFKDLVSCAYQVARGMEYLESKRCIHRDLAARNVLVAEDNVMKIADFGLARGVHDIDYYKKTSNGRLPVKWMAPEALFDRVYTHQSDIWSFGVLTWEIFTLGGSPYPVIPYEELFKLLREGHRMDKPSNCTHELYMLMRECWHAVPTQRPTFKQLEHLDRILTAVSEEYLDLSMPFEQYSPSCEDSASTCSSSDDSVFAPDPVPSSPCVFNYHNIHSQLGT
Put plainly: cell surface binding assay (AP fusion protein on transfected cells); HEK293T cells transfected with the receptor; 2-2.5 U ml^-1 AP-fused conditioned media for 3 h on ice; cross-linked with DSP; developed with BM-Purple.

For experiment [5], the target named is human FGFR4-HA (Fibroblast Growth Factor receptor 4) on transfected HEK293T cells (human) (UniProt P22455). Put plainly: cell surface competitive binding assay (AP fusion protein on transfected cells); as a6; the peptide (50 uM) against the receptor on cells; only the binder purified.
Experiment [6] concerns the target T3, recombinant human FGFR4 Fc Chimera (human, UniProt P22455 22-369).
T3 construct: Fibroblast Growth Factor receptor 4 (FGFR4), human, extracellular domain; also called FGFR4^ECD; extracellular domain (ECD) of FGFR4; source: bought: R&D systems 685-FR and BioLegend 752502
T3 sequence (looked up): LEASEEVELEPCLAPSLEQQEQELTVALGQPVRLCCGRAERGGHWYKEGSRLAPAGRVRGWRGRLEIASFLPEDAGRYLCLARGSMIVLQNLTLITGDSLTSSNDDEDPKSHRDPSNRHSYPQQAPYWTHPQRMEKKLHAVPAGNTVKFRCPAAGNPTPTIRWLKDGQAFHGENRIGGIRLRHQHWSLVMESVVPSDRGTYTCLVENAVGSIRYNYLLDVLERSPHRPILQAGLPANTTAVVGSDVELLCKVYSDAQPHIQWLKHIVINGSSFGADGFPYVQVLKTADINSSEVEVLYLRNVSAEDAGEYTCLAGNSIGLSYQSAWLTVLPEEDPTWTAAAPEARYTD
Put plainly: in vitro competitive binding assay (solid phase, bound AP activity); coated FGFR4 Fc Chimera; 2 U ml^-1 RSPO2-AP together with 100 uM monomeric peptides for 3 h at room temperature; the pair RSPO2-AP and FGFR4 Fc; only the target purified.

The target in experiment [7] is human FGFR4-HA (Fibroblast Growth Factor receptor 4) on transfected HEK293T cells (human) (UniProt P22455). Put plainly: cell surface competitive binding assay (AP fusion protein on transfected cells); HEK293T cells transfected with the receptor; RSPO2-AP conditioned medium together with 50 uM TK, KC or RW peptide; the pair RSPO2-AP and receptor on cells.
The target in experiment [8] is BMPR1A-HA on transfected HEK293T cells (UniProt P36894). The description is as above.
Experiment [9] deals with human FGFR4-HA (Fibroblast Growth Factor receptor 4) on transfected HEK293T cells (human) (UniProt P22455). Put plainly: cell surface competitive binding assay (AP fusion protein on transfected cells); HEK293T cells transfected with the receptor; RSPO2-AP conditioned medium together with 5 nM FGFR4 Fc Chimera or 5 nM BMPR1A Fc Chimera; the pair RSPO2-AP and receptor on cells.

For experiment [10], the target named is BMPR1A-HA on transfected HEK293T cells (UniProt P36894). The description is as above.
Experiment [11] addresses FGFR1 Fc Chimera (UniProt P11362). Put plainly: in vitro binding assay (solid phase, bound AP activity); 96-well plates coated with 2-4 ug ml^-1 Fc Chimera in bicarbonate coating buffer pH 9.6; 2 U ml^-1 RSPOs-AP overnight at 4 °C; AquaSpark AP substrate; only the target purified.
Experiment [12] concerns the target T3, recombinant human FGFR4 Fc Chimera. The description is as above.
For experiment [13], the target named is FGFR1 Fc Chimera (UniProt P11362). The experiment is described as above. This is another data set of the same source.
The target in experiment [14] is T1, Xenopus tropicalis Lgr4-V5 on transfected HEK293T cells (Xenopus tropicalis). Put plainly: cell surface binding assay (AP fusion protein on transfected cells); HEK293T cells transfected with the receptor; 2-2.5 U ml^-1 AP-fused conditioned media for 3 h on ice; cross-linked with DSP; developed with BM-Purple. This is another data set of the same source.
Experiment [15] deals with human FGFR4-HA (Fibroblast Growth Factor receptor 4) on transfected HEK293T cells (human) (UniProt P22455). The experiment is described as above. This is another data set of the same source.

As for “human RSPO4-AP (alkaline-phosphatase-tagged R-Spondin 4 fusion protein) (from UniProt Q2I0M5 20-234) (ligand)”, the binding entry was “binds” in [1] and “no binding (tested: 2-2.5 U ml^-1 AP-fused conditioned media)” in experiment [2].

In the case of “human RSPO1-AP (alkaline-phosphatase-tagged R-Spondin 1 fusion protein) (from UniProt Q2MKA7 21-263) (ligand)”, the binding result is on record as “binds” in experiment [1] and “no binding (tested: 2-2.5 U ml^-1 AP-fused conditioned media)” in experiment [2].

Regarding “BMPR1A Fc Chimera (from UniProt P36894 24-152) (Fc fusion)”, in experiment [3], the binding entry is “binds”.

B1: Xenopus Rspo2 wildtype-AP (ligand, UniProt Q5UE90 22-243)
chain: QASRWRRSKRASYGTNPICKGCLSCSKDNGCLRCQPKLFFFLRREGMRQYGECLQSCPPGYYGVRGPDMNRCSRCRIENCDSCFSRDFCIKCKSGFYSLKGQCFEECPEGFAPLDDTMVCVDGCEVGPWSEWGTCSRNNRTCGFKWGLETRTRQIVKKPAKDTIPCPTIAESRRCKMAIRHCPGGKRTTKKKDKRNKKKKKKLLERAQEQHSVVLATDRSSQ
For the molecule B1, the binding entry in experiment [4] was “binds”.

B2: KC peptide (10-mer derived from the human RSPO2 TSP1 domain) (peptide)
peptide: KKPVKDTILC
notes: stretch of the TSP1 domain of human R-Spondin 2 (RSPO2)
Take B2: the binding result in experiment [5] is recorded as “binds”.

B3: human RSPO2-AP (alkaline-phosphatase-tagged R-Spondin 2 fusion protein) (ligand, UniProt Q6UXX9 22-243, looked up)
chain: QGNRWRRSKRASYVSNPICKGCLSCSKDNGCSRCQQKLFFFLRREGMRQYGECLHSCPSGYYGHRAPDMNRCARCRIENCDSCFSKDFCTKCKVGFYLHRGRCFDECPDGFAPLEETMECVEGCEVGHWSEWGTCSRNNRTCGFKWGLETRTRQIVKKPVKDTILCPTIAESRRCKMTMRHCPGGKRTPKAKEKRNKKKKRKLIERAQEQHSVFLATDRANQ
notes: R-Spondin 2 (RSPO2), human; also called R2; source: HEK293T, transfected, conditioned medium
Regarding B3, the binding entry in [6], in experiment [1], in [2], in [7], in experiment [8] and in experiment [9] was “binds” in each case. The binding entry in experiment [10] was “binds”; in the experiment with FGFR1 Fc Chimera [11], “binds weakly”; in [12] it was “binds”.

B4: TK peptide (10-mer derived from the human RSPO2 TSP1 domain) (peptide)
peptide: TRQIVKKPVK
notes: as for B2
As to B4, the binding entry in experiment [5] is on record as “binds”.

B5: human RSPO3-AP (alkaline-phosphatase-tagged R-Spondin 3 fusion protein) (ligand, UniProt Q9BXY4 22-272)
chain: QNASRGRRQRRMHPNVSQGCQGGCATCSDYNGCLSCKPRLFFALERIGMKQIGVCLSSCPSGYYGTRYPDINKCTKCKADCDTCFNKNFCTKCKSGFYLHLGKCLDNCPEGLEANNHTMECVSIVHCEVSEWNPWSPCTKKGKTCGFKRGTETRVREIIQHPSAKGNLCPPTNETRKCTVQRKKCQKGERGKKGRERKRKKPNKGESKEAIPDSKSLESSKEIPEQRENKQQQKKRKVQDKQKSVSVSTVH
For B5, the binding entry with FGFR1 Fc Chimera [13] is “binds weakly”; in experiment [14], “binds”; in experiment [15] it was “binds weakly”.
